# In the supplement of paper PMC8728848:
# The list shows a part of the results.
# Assays:
# Assay in all cases: glycan array binding signal (z-score within array); higher = stronger binding
# Details in all cases: glycan notation: IUPAC condensed, linker removed
# [1] = molecular target: Gal(b1-4)Glc
# How it was run: (§1)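 The binding signal is a Z-score computed within each array and averaged over linkers. Arrays of the same protein sequence at different concentrations or buffers were also averaged together. Data originate from 3228 arrays in the Consortium for Functional Glycomics database, kept only where the protein sequence was available.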
# [2] = molecular target: Gal(b1-4)Glc6S
# How it was run: as §1
# [3] = molecular target: Gal(b1-4)GlcNAc
# How it was run: as §1
# [4] = molecular target: Gal(b1-4)GlcNAc(a1-6)Gal(b1-4)GlcNAc
# How it was run: as §1
# [5] = molecular target: Gal(b1-4)GlcNAc(b1-2)Man
# How it was run: as §1
# [6] = molecular target: Gal(b1-4)GlcNAc(b1-2)Man(a1-3)Man(b1-4)GlcNAc(b1-4)GlcNAc
# How it was run: as §1
# [7] = molecular target: Gal(b1-4)GlcNAc(b1-2)Man(a1-3)[Gal(b1-4)GlcNAc(b1-2)Man(a1-6)]Man(b1-4)GlcNAc(b1-4)GlcNAc
# How it was run: as §1
# [8] = molecular target: Gal(b1-4)GlcNAc(b1-2)Man(a1-3)[Gal(b1-4)GlcNAc(b1-2)Man(a1-6)]Man(b1-4)GlcNAc(b1-4)[Fuc(a1-6)]GlcNAc
# How it was run: as §1
# [9] = molecular target: Gal(b1-4)GlcNAc(b1-2)Man(a1-3)[Gal(b1-4)GlcNAc(b1-2)Man(a1-6)][Gal(b1-4)GlcNAc(b1-4)]Man(b1-4)GlcNAc(b1-4)[Fuc(a1-6)]GlcNAc
# How it was run: as §1
# [10] = molecular target: Gal(b1-4)GlcNAc(b1-2)Man(a1-3)[Gal(b1-4)GlcNAc(b1-2)Man(a1-6)][GlcNAc(b1-4)]Man(b1-4)GlcNAc(b1-4)[Fuc(a1-6)]GlcNAc
# How it was run: as §1
# [11] = molecular target: Gal(b1-4)GlcNAc(b1-2)Man(a1-3)[GlcNAc(b1-2)Man(a1-6)]Man(b1-4)GlcNAc(b1-4)GlcNAc
# How it was run: as §1
# [12] = molecular target: Gal(b1-4)GlcNAc(b1-2)Man(a1-3)[GlcNAc(b1-4)][Gal(b1-4)GlcNAc(b1-2)Man(a1-6)]Man(b1-4)GlcNAc(b1-4)GlcNAc
# How it was run: as §1
# [13] = molecular target: Gal(b1-4)GlcNAc(b1-2)Man(a1-3)[Man(a1-6)]Man(b1-4)GlcNAc(b1-4)GlcNAc
# How it was run: as §1
# [14] = molecular target: Gal(b1-4)GlcNAc(b1-2)Man(a1-6)Man(b1-4)GlcNAc(b1-4)GlcNAc
# How it was run: as §1
# [15] = molecular target: Gal(b1-4)GlcNAc(b1-2)Man(a1-6)[GlcNAc(b1-2)Man(a1-3)]Man(b1-4)GlcNAc(b1-4)GlcNAc
# How it was run: as §1
# [16] = molecular target: Gal(b1-4)GlcNAc(b1-2)Man(a1-6)[Man(a1-3)]Man(b1-4)GlcNAc(b1-4)GlcNAc
# How it was run: as §1
# [17] = molecular target: Gal(b1-4)GlcNAc(b1-2)[Gal(b1-4)GlcNAc(b1-4)]Man(a1-3)[Gal(b1-4)GlcNAc(b1-2)Man(a1-6)]Man(b1-4)GlcNAc(b1-4)GlcNAc
# How it was run: as §1
# [18] = molecular target: Gal(b1-4)GlcNAc(b1-2)[Gal(b1-4)GlcNAc(b1-4)]Man(a1-3)[Gal(b1-4)GlcNAc(b1-2)[Gal(b1-4)GlcNAc(b1-6)]Man(a1-6)]Man(b1-4)GlcNAc(b1-4)GlcNAc
# How it was run: as §1
# [19] = molecular target: Gal(b1-4)GlcNAc(b1-2)[Gal(b1-4)GlcNAc(b1-4)]Man(a1-3)[GlcNAc(b1-4)][Gal(b1-4)GlcNAc(b1-2)Man(a1-6)]Man(b1-4)GlcNAc(b1-4)GlcNAc
# How it was run: as §1
# [20] = molecular target: Gal(b1-4)GlcNAc(b1-2)[Gal(b1-4)GlcNAc(b1-4)]Man(a1-3)[GlcNAc(b1-4)][Gal(b1-4)GlcNAc(b1-2)[Gal(b1-4)GlcNAc(b1-6)]Man(a1-6)]Man(b1-4)GlcNAc(b1-4)GlcNAc
# How it was run: as §1
# [21] = molecular target: Gal(b1-4)GlcNAc(b1-2)[Gal(b1-4)GlcNAc(b1-6)]Man(a1-6)[Gal(b1-4)GlcNAc(b1-2)Man(a1-3)]Man(b1-4)GlcNAc(b1-4)GlcNAc
# How it was run: as §1
# [22] = molecular target: Gal(b1-4)GlcNAc(b1-2)[Gal(b1-4)GlcNAc(b1-6)]Man(a1-6)[Gal(b1-4)GlcNAc(b1-2)Man(a1-3)]Man(b1-4)GlcNAc(b1-4)[Fuc(a1-6)]GlcNAc
# How it was run: as §1
# [23] = molecular target: Gal(b1-4)GlcNAc(b1-2)[Gal(b1-4)GlcNAc(b1-6)]Man(a1-6)[GlcNAc(b1-4)][Gal(b1-4)GlcNAc(b1-2)Man(a1-3)]Man(b1-4)GlcNAc(b1-4)GlcNAc
# How it was run: as §1
# [24] = molecular target: Gal(b1-4)GlcNAc(b1-2)[Gal(b1-4)GlcNAc(b1-6)]Man(a1-6)[GlcNAc(b1-4)][Gal(b1-4)GlcNAc(b1-2)[Gal(b1-4)GlcNAc(b1-4)]Man(a1-3)]Man(b1-4)GlcNAc(b1-4)[Fuc(a1-6)]GlcNAc
# How it was run: as §1
# [25] = molecular target: Gal(b1-4)GlcNAc(b1-3)Gal(b1-3)GalNAc
# How it was run: as §1
# [26] = molecular target: Gal(b1-4)GlcNAc(b1-3)Gal(b1-3)GlcNAc
# How it was run: as §1
# [27] = molecular target: Gal(b1-4)GlcNAc(b1-3)Gal(b1-4)Glc
# How it was run: as §1
# [28] = molecular target: Gal(b1-4)GlcNAc(b1-3)Gal(b1-4)GlcNAc
# How it was run: as §1
# [29] = molecular target: Gal(b1-4)GlcNAc(b1-3)Gal(b1-4)GlcNAc(b1-2)Man(a1-3)[Gal(b1-4)GlcNAc(b1-3)Gal(b1-4)GlcNAc(b1-2)Man(a1-6)]Man(b1-4)GlcNAc(b1-4)GlcNAc
# How it was run: as §1
# [30] = molecular target: Gal(b1-4)GlcNAc(b1-3)Gal(b1-4)GlcNAc(b1-2)Man(a1-3)[Gal(b1-4)GlcNAc(b1-3)Gal(b1-4)GlcNAc(b1-2)Man(a1-6)]Man(b1-4)GlcNAc(b1-4)[Fuc(a1-6)]GlcNAc
# How it was run: as §1
# [31] = molecular target: Gal(b1-4)GlcNAc(b1-3)Gal(b1-4)GlcNAc(b1-2)[Gal(b1-4)GlcNAc(b1-3)Gal(b1-4)GlcNAc(b1-6)]Man(a1-6)[Gal(b1-4)GlcNAc(b1-3)Gal(b1-4)GlcNAc(b1-2)Man(a1-3)]Man(b1-4)GlcNAc(b1-4)GlcNAc
# How it was run: as §1
# [32] = molecular target: Gal(b1-4)GlcNAc(b1-3)Gal(b1-4)GlcNAc(b1-2)[Gal(b1-4)GlcNAc(b1-3)Gal(b1-4)GlcNAc(b1-6)]Man(a1-6)[Gal(b1-4)GlcNAc(b1-3)Gal(b1-4)GlcNAc(b1-2)Man(a1-3)]Man(b1-4)GlcNAc(b1-4)[Fuc(a1-6)]GlcNAc
# How it was run: as §1
# [33] = molecular target: Gal(b1-4)GlcNAc(b1-3)Gal(b1-4)GlcNAc(b1-3)Gal(b1-4)GlcNAc
# How it was run: as §1
# [34] = molecular target: Gal(b1-4)GlcNAc(b1-3)Gal(b1-4)GlcNAc(b1-3)Gal(b1-4)GlcNAc(b1-2)Man(a1-3)[Gal(b1-4)GlcNAc(b1-3)Gal(b1-4)GlcNAc(b1-3)Gal(b1-4)GlcNAc(b1-2)Man(a1-6)]Man(b1-4)GlcNAc(b1-4)GlcNAc
# How it was run: as §1
# [35] = molecular target: Gal(b1-4)GlcNAc(b1-3)Gal(b1-4)GlcNAc(b1-3)Gal(b1-4)GlcNAc(b1-2)Man(a1-3)[Gal(b1-4)GlcNAc(b1-3)Gal(b1-4)GlcNAc(b1-3)Gal(b1-4)GlcNAc(b1-2)Man(a1-6)]Man(b1-4)GlcNAc(b1-4)[Fuc(a1-6)]GlcNAc
# How it was run: as §1
# [36] = molecular target: Gal(b1-4)GlcNAc(b1-3)Gal(b1-4)GlcNAc(b1-3)Gal(b1-4)GlcNAc(b1-2)[Gal(b1-4)GlcNAc(b1-3)Gal(b1-4)GlcNAc(b1-3)Gal(b1-4)GlcNAc(b1-6)]Man(a1-6)[Gal(b1-4)GlcNAc(b1-3)Gal(b1-4)GlcNAc(b1-3)Gal(b1-4)GlcNAc(b1-2)Man(a1-3)]Man(b1-4)GlcNAc(b1-4)[Fuc(a1-6)]GlcNAc
# How it was run: as §1
# [37] = molecular target: Gal(b1-4)GlcNAc(b1-3)Gal(b1-4)GlcNAc(b1-3)Gal(b1-4)GlcNAc(b1-3)Gal(b1-4)GlcNAc(b1-2)Man(a1-3)[Gal(b1-4)GlcNAc(b1-3)Gal(b1-4)GlcNAc(b1-3)Gal(b1-4)GlcNAc(b1-3)Gal(b1-4)GlcNAc(b1-2)Man(a1-6)]Man(b1-4)GlcNAc(b1-4)GlcNAc
# How it was run: as §1
binder,measurement,setting,value
PX14343E-bfa-545-24-545 (Bacteroides fragilis) (protein) LDRYPQEELSDGSFWKTPDDANKVVSDLYGYLSTWDQDNDINSDNATMGIKWAAGNVSKGIYDPADQGWSGDYANVRQCNLILSKIDEIPDYPEADKTKALGQVYFFRAYIYFNLIRSFGDVPYIDKPLDLKDMEGITRMPRAEVYEKIMADFDKAIAALPTEWGASDYGRVTKGAAMAMKARAALYYGNWDTAATEAKNVMDLGLYELYDKDNTGKYAELFWEKADGCDEFILVTQFNYPDKTHYLMGWECFPTKGWGGMNPTQSLVDAFEDSEGAPISKSKIYDPTDPFKNRDPRLEVDILHDGEEMYGVTIKVAPLASSGSTGINQHNDATETGYYGQKWLDPSLDPLSDGWNMGKDWVHIRYAEVLLTYAEAKNELQGLDPEAFDAVNQVRRRVGMPELQNTDPSKPTYCATQDDLRQRIRNEWRVEFCLEGGKRMWDIRRWGIAKDVLNAPFEGLKYKIVDNPNDPDKKVDGGKMCILYQGDPIILSGSRYSDNNYLFPVPQSEIDLNPALTQNPGY,glycan array binding signal (z-score),[1],-0.472
same,glycan array binding signal (z-score),[2],0.534
same,glycan array binding signal (z-score),[3],-0.277
same,glycan array binding signal (z-score),[4],-0.402
same,glycan array binding signal (z-score),[5],-0.238
same,glycan array binding signal (z-score),[6],0.631
same,glycan array binding signal (z-score),[7],-0.321
same,glycan array binding signal (z-score),[8],0.236
same,glycan array binding signal (z-score),[9],-0.524
same,glycan array binding signal (z-score),[10],-1.04
same,glycan array binding signal (z-score),[11],-0.179
same,glycan array binding signal (z-score),[12],-0.633
same,glycan array binding signal (z-score),[13],0.062
same,glycan array binding signal (z-score),[14],-0.785
same,glycan array binding signal (z-score),[15],-0.624
same,glycan array binding signal (z-score),[16],-0.298
same,glycan array binding signal (z-score),[17],-0.705
same,glycan array binding signal (z-score),[18],1.24
same,glycan array binding signal (z-score),[19],-0.51
same,glycan array binding signal (z-score),[20],0.756
same,glycan array binding signal (z-score),[21],0.094
same,glycan array binding signal (z-score),[22],-0.246
same,glycan array binding signal (z-score),[23],0.201
same,glycan array binding signal (z-score),[24],1.15
same,glycan array binding signal (z-score),[25],-0.108
same,glycan array binding signal (z-score),[26],-0.669
same,glycan array binding signal (z-score),[27],-0.546
same,glycan array binding signal (z-score),[28],0.276
same,glycan array binding signal (z-score),[29],2.63
same,glycan array binding signal (z-score),[30],1.92
same,glycan array binding signal (z-score),[31],2.13
same,glycan array binding signal (z-score),[32],1.62
same,glycan array binding signal (z-score),[33],-0.481
same,glycan array binding signal (z-score),[34],3.79
same,glycan array binding signal (z-score),[35],0.202
same,glycan array binding signal (z-score),[36],4.56
same,glycan array binding signal (z-score),[37],0.385

# Reprinted at random: two entries already listed, in no set order.
binder,measurement,setting,value
PX14343E-bfa-545-24-545 (Bacteroides fragilis) (protein) LDRYPQEELSDGSFWKTPDDANKVVSDLYGYLSTWDQDNDINSDNATMGIKWAAGNVSKGIYDPADQGWSGDYANVRQCNLILSKIDEIPDYPEADKTKALGQVYFFRAYIYFNLIRSFGDVPYIDKPLDLKDMEGITRMPRAEVYEKIMADFDKAIAALPTEWGASDYGRVTKGAAMAMKARAALYYGNWDTAATEAKNVMDLGLYELYDKDNTGKYAELFWEKADGCDEFILVTQFNYPDKTHYLMGWECFPTKGWGGMNPTQSLVDAFEDSEGAPISKSKIYDPTDPFKNRDPRLEVDILHDGEEMYGVTIKVAPLASSGSTGINQHNDATETGYYGQKWLDPSLDPLSDGWNMGKDWVHIRYAEVLLTYAEAKNELQGLDPEAFDAVNQVRRRVGMPELQNTDPSKPTYCATQDDLRQRIRNEWRVEFCLEGGKRMWDIRRWGIAKDVLNAPFEGLKYKIVDNPNDPDKKVDGGKMCILYQGDPIILSGSRYSDNNYLFPVPQSEIDLNPALTQNPGY,glycan array binding signal (z-score),[11],-0.179
same,glycan array binding signal (z-score),[21],0.094
